Read-outs that look alike come from different tables or passages of the source. At least one peptide structure holds a part that was inferred or is arguable (an end, a ring closure or a residue).
How the values were obtained:
[1] = test system: primary mouse cortical neuron cultures; experiment: JNK activation in cortical neurons exposed to hydrogen peroxide; format: cell-based; settings: 10 μM, H2O2 1 mM 15 minutes
[2] = test system: primary cortical neuronal cultures of WT and PKR−/− mice; experiment: Aβ42-stressed WT and PKR−/− cortical neurons; format: cell-based
[3] = test system: PC-3 human prostate tumors; experiment: Subcutaneous PC-3 human prostate tumors in Balb/c Nude mice; format: in vivo; settings: 0.1 and 1 mg/kg/inj, Q4Dx4
[4] = test system: Recombinant JNK1, JNK2 and JNK3; experiment: Solid phase kinase assays with c-Jun, ATF2 and Elk1 as substrates; format: biochemical; settings: 0-250 μM, GST-Jun (aa 1-73)
[5] = test system: Wistar rats, renal ischemia/reperfusion; experiment: Renal ischemia/reperfusion, 2 mg/kg after reperfusion; format: in vivo, rat; settings: 2 mg/kg IV one hour after clamping period, 24 h
[6] = test system: rats, Adriamycin-induced nephropathy
Brown Norway rats, STZ = experiment: Diabetic retinopathy prevention study in STZ treated rat (IVT); format: in vivo
Excerpt: The objective of this study was to determine the ability of XG-102 to prevent diabetic retinopathy when administered by intravitreal injections to streptozotocin (STZ)-treated (hyperglycemic) rats.
Sterile vials containing 0.0412 g of inducing agent (STZ) were pre-weighed, sealed and transferred to the dosing room for administration to Groups 2 to 4 animals and Spares on Day −7. A duplicate set of empty, appropriately labeled sterile vials were provided. The reconstituted STZ solution was filtered into these vials for dosing. The Reference Item, 0.9% NaCl, was administered as received. XG-102 was prepared using the correction factor 1.383. A stock solution equal to the highest dose level was prepared in vehicle, 0.9% Sodium Chloride for Injection, and sterile filtered through a 0.22 μm polyvinylidene difluoride (PVDF) filter. The lower dose levels were prepared by directly diluting the stock solution. Dose formulations were prepared once at appropriate concentrations to meet dosage level requirements. All dilutions were prepared by directly diluting the stock solution with vehicle. Three dosing aliquots (Days 1, 8 and 15) were prepared and stored in a freezer set to maintain −20° C. Aliquot(s) of each dose level were thawed at ambient temperature on each day of dosing and the solution maintained at room temperature for no longer than 6 hours.
60 male Brown Norway rats were received from Charles River Labs, Inc., Portage, II. The animals were approximately 8 weeks old and weighed between 166 and 228 g. The Brown Norway rat was chosen as the animal model for this study as it is an accepted species for use in the STZ-induced diabetic retinopathy model. The total number of animals used in this study was considered to be the minimum required to properly characterize the effects of the Test Items. […] A minimum acclimation period of 20 days was allowed between animal receipt and the start of treatment in order to accustom the animals to the laboratory environment. Animals were assigned to groups by a stratified randomization scheme designed to achieve similar group mean body weights. Animals in poor health or at extremes of body weight range were not assigned to groups. Before the initiation of dosing, any assigned animals considered unsuitable for use in the study were replaced by alternate animals obtained from the same shipment and maintained under the same environmental conditions. The alternate animals were used as replacements on the study within 3 days of initiation. On arrival, animals were individually housed until randomization. Following randomization, animals were group housed (up to 3 animals of the same dosing group together) in stainless steel perforated floor cages equipped with an automatic watering valve. The room in which the animals were kept was documented in the study records. Animals were separated during designated procedures/activities. Temperatures of 19° C. to 25° C. with a relative humidity of 30% to 70% were maintained. A 12-hour light/12-hour dark cycle was maintained, except when interrupted for designated procedures. PMI Nutrition International Certified Rodent Chow No. 5CR4 (14% protein) was provided ad libitum throughout the study, except during designated procedures. Municipal tap water after treatment by reverse osmosis and ultraviolet irradiation was freely available to each animal via an automatic watering system (except during designated procedures). Animals were socially housed for psychological/environmental enrichment and were provided with items such as a hiding device and a chewing object, except when interrupted by study procedures/activities.
For administration of Inducing Agent (Groups 2 to 4, Day −7), one vial of STZ per animal (including spares) was reconstituted within 3 minutes of injection with 1.5 mL of Sterile Water for Injection, USP, to provide a concentration of 27.5 mg/mL. The vial was inverted or swirled to dissolve STZ. […]

[7] = PKR−/− neurons + XG-102 (dual inhibition)

`CC(C)C[C@@H](NC(=O)[C@@H](Cc1ccccc1)NC(=O)[C@H]1CCCN1C(=O)[C@@H](CCC(N)=O)NC(=O)[C@H](NC(=O)[C@H]1CCCN1C(=O)[C@@H](CCCNC(=N)N)NC(=O)[C@@H](CO)NC(=O)[C@@H](CCC(N)=O)NC(=O)[C@H](N)CC(=O)O)C(C)C)C(=O)N[C@H](CC(N)=O)C(=O)N[C@H](CC(C)C)C(=O)N[C@@H](C(=O)N[C@@H](C(=O)N1CCC[C@@H]1C(=O)N[C@H](CCCNC(=N)N)C(=O)N[C@H](CCCCN)C(=O)N1CCC[C@@H]1C(=O)N[C@H](CCCNC(=N)N)C(=O)N1CCC[C@@H]1C(=O)N1CCC[C@@H]1C(=O)N[C@H](CCCNC(=N)N)C(=O)N[C@H](CCCNC(=N)N)C(=O)N[C@H](CCCNC(=N)N)C(=O)N[C@H](CCC(N)=O)C(=O)N[C@H](CCCNC(=N)N)C(=O)N[C@H](CCCNC(=N)N)C(=O)N[C@H](CCCCN)C(=O)N[C@H](CCCCN)C(=O)N[C@H](CCCNC(=N)N)C(=O)NCC(=O)O)[C@H](C)O)[C@H](C)O` [XG-102] was tested, and the “JNK activity (pJNK/JNK)” value [1] was 45 % of controls, the “decrease of PARP expression level” value [2, 7] was 93% and the “decrease of caspase 3 activity” value [2, 7] was 87%. For the same compound, the “decrease of cleaved caspase 3” value ([2]; PKR−/− neurons + XG-102 (dual inhibition), vs treated WT) was 83%, the “change of JNK activation” value ([2]; PKR−/− neurons, Aβ42) was −35% and the “change of c-Jun expression” value ([2]; WT neurons, Aβ42) was −65%. The “change of c-Jun phosphorylation” value ([2]; WT neurons, Aβ42, 10 μM) was −74%, the “reduction of cleaved caspase 3 expression level” value ([2]; WT neurons, Aβ42, vs Aβ42 treated WT) was 93% and the mean tumor volume [3] was “a reduction of tumor volume over time for XG-102 treatment in a dose-dependent manner”. For the same compound, the fasting blood glucose (db/db mice; 1 mg/kg s.c., 28 days of dosing) was “no effect of low dose”, the body weight (db/db mice; 1 mg/kg, 28 days of dosing) was “no effect of low dose” and the body weight (db/db mice; 10 mg/kg) was “a clear and significant (p<0.001) prevention of body weight increase”. For the same compound, the plasma resistin (db/db mice; 10 mg/kg) was “significantly higher in XG-102 (SEQ ID NO: 2) treated animals at day 77 and 108”, the “fasting blood glucose, low plateau” value (db/db mice; 10 mg/kg s.c.) was “approximately 5 mmol/L” and the fasting blood glucose (db/db mice; 10 mg/kg s.c. daily 21 days, vs vehicle) was “a clear and significant (p<0.001) decrease in the level of fasting blood glucose”. For the same compound, the “tissue weight of epididymal, inguinal subcutaneous and retroperitoneal fat pads” value (db/db mice; 10 mg/kg, termination) was “a significant decrease of epididymal (p<0.05) and retroperitoneal (p<0.01) fat mass”, the “tissue weight of kidney and liver” value (db/db mice; 10 mg/kg, termination) was “a significant decrease of kidney (p<0.05) and liver (p<0.01) mass” and the “decrease of JNK-mediated phosphorylation of c-Jun, fold less efficiently than L-TAT-IB1(s)” value [4] was 10-20 fold. The serum creatinine [5] was “exhibited lower serum creatinine, relatively to untreated ischemic rats (G2)”, the “histological preparations, adriamycin-induced nephropathy” value ([6]; 20, 200, 2000 μg/kg i.v., day 8, 14, 29, 41) was “a significantly positive effect on adriamycin-induced nephropathy” and the “c-jun expression in the interstitium (staining)” value ([6]; 8 days after onset) was “a significant reduction of c-jun expression in the interstitium”. For the same compound, the “histopathology (PAS, Masson trichrome)” value ([6]; ADR + XG-102 2 mg/kg) was “had a relatively normal appearance at Day 8, and develop few focal and segmental glomerulosclerosis and tubulointerstitial fibrosis at Day 56”, the urea serum level ([6]; ADR + XG-102 2 mg/kg i.v. Day 0, throughout the course of the disease) was “below 10 mmol/l” and the “Amplitude, Photopic 1 Hz Flicker A-Wave” value (Brown Norway rats, STZ; 0.2 μg/eye, Day 6) was −3 μV. For the same compound, the “Amplitude, Photopic 1 Hz Flicker B-Wave” value (Brown Norway rats, STZ; 0.2 μg/eye, Day 6) was 63 μV, the “Amplitude, Photopic 29 Hz Flicker - B-Wave” value (Brown Norway rats, STZ; 0.2 μg/eye, Day 6) was 9 μV and the “Amplitude, Photopic 1 Hz Flicker A-Wave” value (Brown Norway rats, STZ; 0.2 μg/eye, Day 13) was −4 μV. For the same compound, the “Amplitude, Photopic 1 Hz Flicker B-Wave” value (Brown Norway rats, STZ; 0.2 μg/eye, Day 13) was 71 μV, the “Amplitude, Photopic 29 Hz Flicker - B-Wave” value (Brown Norway rats, STZ; 0.2 μg/eye, Day 13) was 14 μV and the “Amplitude, Scotopic Single Flash −30 dB - B-Wave” value (Brown Norway rats, STZ; 0.2 μg/eye, Day 13) was 270 μV. The “Amplitude, Oscillatory Potential #2 Scotopic Single Flash 0 dB - B-Wave” value (Brown Norway rats, STZ; 0.2 μg/eye, Day 20) was 70 μV, the “Amplitude, Photopic 1 Hz Flicker A-Wave” value (Brown Norway rats, STZ; 0.2 μg/eye, Day 20) was −2 μV and the “Amplitude, Photopic 1 Hz Flicker B-Wave” value (Brown Norway rats, STZ; 0.2 μg/eye, Day 20) was 70 μV. For the same compound, the “Amplitude, Photopic 29 Hz Flicker - B-Wave” value (Brown Norway rats, STZ; 0.2 μg/eye, Day 20) was 10 μV, the “Amplitude, Scotopic Single Flash −30 dB - B-Wave” value (Brown Norway rats, STZ; 0.2 μg/eye, Day 20) was 240 μV and the “Amplitude, Oscillatory Potential #1 Scotopic Single Flash 0 dB - B-Wave” value (Brown Norway rats, STZ; 2 μg/eye, Day 6) was 40 μV. For the same compound, the “Amplitude, Photopic 1 Hz Flicker A-Wave” value (Brown Norway rats, STZ; 2 μg/eye, Day 6) was −3 μV, the “Amplitude, Photopic 1 Hz Flicker B-Wave” value (Brown Norway rats, STZ; 2 μg/eye, Day 6) was 69 μV and the “Amplitude, Photopic 29 Hz Flicker - B-Wave” value (Brown Norway rats, STZ; 2 μg/eye, Day 6) was 11 μV. For the same compound, the “Amplitude, Scotopic Single Flash −30 dB - B-Wave” value (Brown Norway rats, STZ; 2 μg/eye, Day 6) was 270 μV, the “Amplitude, Oscillatory Potential #4 Scotopic Single Flash 0 dB - B-Wave” value (Brown Norway rats, STZ; 2 μg/eye, Day 13) was 160 μV and the “Amplitude, Photopic 1 Hz Flicker A-Wave” value (Brown Norway rats, STZ; 2 μg/eye, Day 13) was −6 μV. The “Amplitude, Photopic 1 Hz Flicker B-Wave” value (Brown Norway rats, STZ; 2 μg/eye, Day 13) was 91 μV, the “Amplitude, Photopic 29 Hz Flicker - B-Wave” value (Brown Norway rats, STZ; 2 μg/eye, Day 13) was 17 μV and the “Amplitude, Oscillatory Potential #4 Scotopic Single Flash 0 dB - B-Wave” value (Brown Norway rats, STZ; 2 μg/eye, Day 20) was 130 μV. The “Amplitude, Photopic 1 Hz Flicker A-Wave” value (Brown Norway rats, STZ; 2 μg/eye, Day 20) was −2 μV, the “Amplitude, Photopic 1 Hz Flicker B-Wave” value (Brown Norway rats, STZ; 2 μg/eye, Day 20) was 45 μV and the “Amplitude, Photopic 29 Hz Flicker - B-Wave” value (Brown Norway rats, STZ; 2 μg/eye, Day 20) was 9 μV. The “Amplitude, Scotopic Single Flash −10 dB - A-Wave” value (Brown Norway rats, STZ; 2 μg/eye, Day 20) was −84 μV and the “fluorescein angiography, vascular leakage” value (Brown Norway rats, STZ; rat, in vivo) was “did not reveal any vascular leakage”.

Reference: US11779628B2, “Use of cell-permeable peptide inhibitors of the JNK signal transduction pathway for the treatment of various diseases” (Xigen Inflammation Ltd., priority 2014, dated 2023)
